Laboratory results reported in publication PMC5865211, “The orphan GPR50 receptor promotes constitutive TGFβ receptor signaling and protects against cancer development” (Nature Communications, 2018).
No constants are given. Whether binding was seen depends on the method and setting. Binding seen in cells or lysates may run through a third protein. Some binding calls cover weakened binding; strength is not graded here. For part of these data: Where a sequence is shown, tags or fusion partners need not be part of it.

Chains of the proteins cited; added tags and fusions are not shown.
UniProt O88495: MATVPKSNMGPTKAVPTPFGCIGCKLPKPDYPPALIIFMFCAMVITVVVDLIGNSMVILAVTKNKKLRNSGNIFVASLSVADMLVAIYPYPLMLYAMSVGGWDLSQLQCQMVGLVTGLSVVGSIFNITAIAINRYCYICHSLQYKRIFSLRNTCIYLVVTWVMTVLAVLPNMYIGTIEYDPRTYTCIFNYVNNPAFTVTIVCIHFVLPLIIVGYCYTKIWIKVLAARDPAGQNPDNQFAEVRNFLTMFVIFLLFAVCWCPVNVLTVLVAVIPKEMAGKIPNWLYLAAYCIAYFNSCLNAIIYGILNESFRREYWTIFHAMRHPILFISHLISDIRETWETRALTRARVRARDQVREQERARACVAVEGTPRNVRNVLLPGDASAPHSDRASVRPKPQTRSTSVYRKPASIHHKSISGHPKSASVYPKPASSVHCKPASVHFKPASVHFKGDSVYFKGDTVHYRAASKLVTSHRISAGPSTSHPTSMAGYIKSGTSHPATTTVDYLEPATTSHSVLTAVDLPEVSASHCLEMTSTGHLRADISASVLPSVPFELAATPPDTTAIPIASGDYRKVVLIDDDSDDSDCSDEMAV

Legend:
[1] = target: T1, TβRI, endogenous mouse (mouse (endogenous in C57/Bl6 tissue and 4T1 cells)) (UniProt Q64729); test: co-IP; mouse tissue (cortex, total brain, lung) of C57BL/6J wt and GPR50ko mice solubilised in 0.5% CHAPS in TEM buffer, antibody overnight
T1 sequence: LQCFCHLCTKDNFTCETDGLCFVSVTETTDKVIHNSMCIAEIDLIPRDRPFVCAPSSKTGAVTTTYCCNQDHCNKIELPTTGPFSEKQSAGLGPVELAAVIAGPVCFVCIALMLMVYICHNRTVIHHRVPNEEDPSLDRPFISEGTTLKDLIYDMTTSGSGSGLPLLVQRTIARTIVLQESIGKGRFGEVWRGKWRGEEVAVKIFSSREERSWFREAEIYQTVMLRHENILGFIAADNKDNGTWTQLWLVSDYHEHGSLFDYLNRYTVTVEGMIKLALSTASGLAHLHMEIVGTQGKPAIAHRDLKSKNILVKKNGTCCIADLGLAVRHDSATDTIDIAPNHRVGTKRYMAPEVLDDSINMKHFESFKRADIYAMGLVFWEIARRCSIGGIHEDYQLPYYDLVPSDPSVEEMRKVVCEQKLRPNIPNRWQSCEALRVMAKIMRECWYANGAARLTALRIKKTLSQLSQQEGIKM

[2] = target: T1, TβRI, endogenous mouse (mouse (endogenous in C57/Bl6 tissue and 4T1 cells)); test: proximity ligation; Duolink In Situ Red kit goat/rabbit with anti-GPR50 (goat) and anti-TβRI (rabbit); median eminence and third ventricle of wt and GPR50ko mouse brain slices
[3] = target: T2, TβRI-Renilla luciferase 8 (Rluc8) fusion protein (UniProt P36897); test: FRET or BRET; BRET competition in HEK293T cells; fixed amounts of TβRI-Rluc8 and YFP fusion, mock or myc-FKBP12 co-expressed; stimulated with TGFβ (0.6 nM, 30 min, 37 °C)
T2 sequence: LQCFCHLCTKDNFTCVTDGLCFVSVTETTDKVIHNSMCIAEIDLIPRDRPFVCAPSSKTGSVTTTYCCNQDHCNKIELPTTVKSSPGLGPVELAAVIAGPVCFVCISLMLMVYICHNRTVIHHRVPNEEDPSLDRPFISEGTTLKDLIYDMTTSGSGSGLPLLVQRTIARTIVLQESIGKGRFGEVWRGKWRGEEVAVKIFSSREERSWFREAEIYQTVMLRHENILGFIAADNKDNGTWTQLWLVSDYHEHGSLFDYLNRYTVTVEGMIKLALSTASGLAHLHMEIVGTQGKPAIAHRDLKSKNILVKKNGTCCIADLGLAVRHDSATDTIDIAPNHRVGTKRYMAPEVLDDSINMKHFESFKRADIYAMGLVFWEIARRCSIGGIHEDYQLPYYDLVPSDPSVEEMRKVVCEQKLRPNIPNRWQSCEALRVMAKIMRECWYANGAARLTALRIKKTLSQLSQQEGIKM

[4] = target: T2, TβRI-Renilla luciferase 8 (Rluc8) fusion protein; test: FRET or BRET; BRET donor saturation in intact HEK293T cells; fixed TβRI-Rluc8, increasing YFP fusion; with TGFβ stimulation (0.6 nM, 30 min at 37 °C)
HA-TβRI = target: T3, HA-TβRI (UniProt P36897); test: co-IP; cell lysates in TNMG buffer with 0.5% NP-40, 2-5 µg antibody 3 h, protein G beads 2 h, washes with 0.05% NP-40; endogenous or transfected proteins (rat tanycytes, NCI-H520 with si-RNA controls, MDA-MB-231, 4T1, HEK293T, SNU638); some samples with TGFβ 2 ng/mL 1 h
T3 sequence: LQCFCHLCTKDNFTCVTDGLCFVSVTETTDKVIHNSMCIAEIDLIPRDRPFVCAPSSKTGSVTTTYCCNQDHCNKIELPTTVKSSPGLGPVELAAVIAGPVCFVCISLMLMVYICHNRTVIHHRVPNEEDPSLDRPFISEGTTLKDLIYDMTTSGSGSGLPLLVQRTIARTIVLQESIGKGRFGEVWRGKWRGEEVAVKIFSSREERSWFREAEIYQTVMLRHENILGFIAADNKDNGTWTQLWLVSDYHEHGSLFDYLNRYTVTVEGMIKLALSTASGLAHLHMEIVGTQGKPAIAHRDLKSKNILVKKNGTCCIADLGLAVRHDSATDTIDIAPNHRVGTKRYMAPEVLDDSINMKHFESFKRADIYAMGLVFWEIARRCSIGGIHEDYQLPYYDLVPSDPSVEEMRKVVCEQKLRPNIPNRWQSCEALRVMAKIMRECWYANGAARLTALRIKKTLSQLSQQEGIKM

myc-FKBP12 = myc-FKBP12 (UniProt P62942); test: as above

Molecule	binding [3]	binding [4]	binding (myc-FKBP12)	also measured
GPR50, endogenous mouse (from UniProt O88495 1-591) (receptor)	–	–	–	binding [1]: binds; binding [2]: binds
GPR50wt-YFP (from UniProt Q13585 1-617) (receptor)	binds	binds	–	–
GPR50Δ4 (from UniProt Q13585 1-617) (receptor)	–	–	–	binding (HA-TβRI): binds
GPR50Δ4-YFP (receptor, human, UniProt Q13585 1-617, looked up, also called GPR50-YFP; source: HEK293T, transfected, in intact cells) MGPTLAVPTPYGCIGCKLPQPEYPPALIIFMFCAMVITIVVDLIGNSMVILAVTKNKKLRNSGNIFVVSLSVADMLVAIYPYPLMLHAMSIGGWDLSQLQCQMVGFITGLSVVGSIFNIVAIAINRYCYICHSLQYERIFSVRNTCIYLVITWIMTVLAVLPNMYIGTIEYDPRTYTCIFNYLNNPVFTVTIVCIHFVLPLLIVGFCYVRIWTKVLAARDPAGQNPDNQLAEVRNFLTMFVIFLLFAVCWCPINVLTVLVAVSPKEMAGKIPNWLYLAAYFIAYFNSCLNAVIYGLLNENFRREYWTIFHAMRHPIIFFSGLISDIREMQEARTLARARAHARDQAREQDRAHACPAVEETPMNVRNVPLPGDAAAGHPDRASGHPKPHSRSSSAYRKSASTHHKSVFSHSKAASGHLKPVSGHSKPASGHPKSATVYPKPASVHFKADSVHFKGDSVHFKPDSVHFKPASSNPKPITGHHVSAGSHSKSAFSAATSHPKPIKPATSHAEPTTADYPKPATTSHPKPTAADNPELSASHCPEIPAIAHPVSDDSDLPESASSPAAGPTKPAASQLESDTIADLPDPTVVTTSTNDYHDVVVIDVEDDPDEMAV	binds	binds	–	–
Flag-TβRI (receptor, UniProt P36897 34-503) LQCFCHLCTKDNFTCVTDGLCFVSVTETTDKVIHNSMCIAEIDLIPRDRPFVCAPSSKTGSVTTTYCCNQDHCNKIELPTTVKSSPGLGPVELAAVIAGPVCFVCISLMLMVYICHNRTVIHHRVPNEEDPSLDRPFISEGTTLKDLIYDMTTSGSGSGLPLLVQRTIARTIVLQESIGKGRFGEVWRGKWRGEEVAVKIFSSREERSWFREAEIYQTVMLRHENILGFIAADNKDNGTWTQLWLVSDYHEHGSLFDYLNRYTVTVEGMIKLALSTASGLAHLHMEIVGTQGKPAIAHRDLKSKNILVKKNGTCCIADLGLAVRHDSATDTIDIAPNHRVGTKRYMAPEVLDDSINMKHFESFKRADIYAMGLVFWEIARRCSIGGIHEDYQLPYYDLVPSDPSVEEMRKVVCEQKLRPNIPNRWQSCEALRVMAKIMRECWYANGAARLTALRIKKTLSQLSQQEGIKM	–	–	binds	–
HA-TβRI (receptor, UniProt P36897 34-503) LQCFCHLCTKDNFTCVTDGLCFVSVTETTDKVIHNSMCIAEIDLIPRDRPFVCAPSSKTGSVTTTYCCNQDHCNKIELPTTVKSSPGLGPVELAAVIAGPVCFVCISLMLMVYICHNRTVIHHRVPNEEDPSLDRPFISEGTTLKDLIYDMTTSGSGSGLPLLVQRTIARTIVLQESIGKGRFGEVWRGKWRGEEVAVKIFSSREERSWFREAEIYQTVMLRHENILGFIAADNKDNGTWTQLWLVSDYHEHGSLFDYLNRYTVTVEGMIKLALSTASGLAHLHMEIVGTQGKPAIAHRDLKSKNILVKKNGTCCIADLGLAVRHDSATDTIDIAPNHRVGTKRYMAPEVLDDSINMKHFESFKRADIYAMGLVFWEIARRCSIGGIHEDYQLPYYDLVPSDPSVEEMRKVVCEQKLRPNIPNRWQSCEALRVMAKIMRECWYANGAARLTALRIKKTLSQLSQQEGIKM	–	–	binds	–
